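The test systems are human melanoma cell lines, treated with a pair of drugs for 72 h and then stained and imaged. Each value is the count of nuclei relative to DMSO-treated wells, in %, so that 100 equals the control. Concentrations were fixed for each drug; these are the higher of two levels. No replicate spread is given; individual values may be noisy.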 This is part of the screen, not chosen by result. A dash means that no value is listed here.

Compounds and concentrations:
MK-2206 (2 µM): NC1(c2ccc(-c3nc4ccn5c(=O)[nH]nc5c4cc3-c3ccccc3)cc2)CCC1
PD173074 (0.5 µM): CCN(CC)CCCCNc1ncc2cc(-c3cc(OC)cc(OC)c3)c(NC(=O)NC(C)(C)C)nc2n1
MK-1775 (0.1 µM): C=CCn1c(=O)c2cnc(Nc3ccc(N4CCN(C)CC4)cc3)nc2n1-c1cccc(C(C)(C)O)n1
VX-702 (2 µM): NC(=O)c1ccc(N(C(N)=O)c2c(F)cccc2F)nc1-c1ccc(F)cc1F
AS-252424 (5 µM): O=C1NC(=O)/C(=C/c2ccc(-c3ccc(F)cc3O)o2)S1
perifosine (2 µM): CCCCCCCCCCCCCCCCCCOP(=O)([O-])OC1CC[N+](C)(C)CC1
NVP-TAE684 (0.4 µM): COc1cc(N2CCC(N3CCN(C)CC3)CC2)ccc1Nc1ncc(Cl)c(Nc2ccccc2S(=O)(=O)C(C)C)n1
GW441756 (2 µM): Cn1cc(/C=C2\C(=O)Nc3cccnc32)c2ccccc21
OSI-906 (2 µM): C[C@]1(O)C[C@@H](c2nc(-c3ccc4ccc(-c5ccccc5)nc4c3)c3c(N)nccn32)C1
vismodegib (5 µM): CS(=O)(=O)c1ccc(C(=O)Nc2ccc(Cl)c(-c3ccccn3)c2)c(Cl)c1

Pair,G-361,A101D,WM3619,COLO 792,IPC-298,C32,A375,501mel,COLO 800,A2058,WM451Lu,COLO 829
MK-1775 and perifosine,-,-,-,55.8,-,-,-,-,-,-,-,-
MK-1775 and vismodegib,-,-,46.5,-,-,-,-,-,-,-,70.2,-
NVP-TAE684 and MK-1775,-,-,34.8,69.7,-,52.2,-,-,70.0,-,64.0,108
OSI-906 and AS-252424,-,-,92.8,76.5,-,83.7,-,-,35.0,-,76.3,93.7
OSI-906 and VX-702,-,-,-,97.8,-,-,-,-,-,-,-,-
MK-1775 and VX-702,-,-,-,89.1,-,78.8,-,-,62.0,-,-,81.1
VX-702 and MK-2206,-,-,91.7,49.7,-,97.5,-,-,119,-,104,81.3
vismodegib and GW441756,-,-,143,102,-,112,-,-,97.7,-,104,112
VX-702 and perifosine,-,115,90.2,93.6,-,84.7,112,-,57.1,86.2,102,77.6
MK-2206 and NVP-TAE684,-,-,57.9,45.4,-,56.7,-,-,40.4,-,86.4,71.6
AS-252424 and GW441756,96.2,92.8,-,87.6,86.3,97.6,190,81.6,91.9,116,-,92.4
MK-2206 and MK-1775,-,-,73.6,41.5,-,85.9,-,-,50.6,-,99.8,78.8
MK-2206 and vismodegib,-,-,102,60.9,-,70.2,-,-,64.1,-,103,94.1
MK-2206 and PD173074,-,-,111,-,-,-,-,-,-,-,84.4,-
NVP-TAE684 and VX-702,-,-,93.5,69.3,-,80.4,-,-,54.8,-,96.8,74.5
OSI-906 and PD173074,-,-,-,99.3,-,94.4,-,-,54.1,-,-,147
NVP-TAE684 and PD173074,87.5,80.5,-,69.5,86.6,88.3,104,-,49.9,71.4,-,78.5
AS-252424 and NVP-TAE684,73.2,87.7,-,80.5,86.2,86.0,125,73.2,68.2,68.8,-,82.8
MK-1775 and GW441756,-,-,30.5,74.4,-,85.9,-,-,70.4,-,98.7,85.1
MK-1775 and PD173074,-,-,30.5,56.6,-,107,-,-,51.7,-,78.1,93.1
vismodegib and PD173074,-,-,117,-,-,-,-,-,-,-,91.5,-
AS-252424 and perifosine,-,-,93.0,-,-,-,-,-,-,-,86.5,-
AS-252424 and vismodegib,-,-,72.5,104,-,102,-,-,103,-,87.7,88.7
MK-1775 and AS-252424,-,-,29.9,56.2,-,91.2,-,-,82.1,-,83.7,81.4
OSI-906 and NVP-TAE684,-,-,96.0,92.4,-,108,-,-,55.9,-,59.0,115
vismodegib and NVP-TAE684,-,-,118,108,-,106,-,-,76.7,-,101,88.9
MK-2206 and GW441756,-,-,70.6,59.2,-,77.9,-,-,52.5,-,91.1,96.7
OSI-906 and MK-2206,-,-,82.5,-,-,-,-,-,-,-,108,-
AS-252424 and PD173074,81.8,98.3,-,86.6,94.7,105,82.7,89.7,63.3,113,-,127

2 of the entries, repeated:

| Pair | G-361 | A101D | WM3619 | COLO 792 | IPC-298 | C32 | A375 | 501mel | COLO 800 | A2058 | WM451Lu | COLO 829 |
|---|---|---|---|---|---|---|---|---|---|---|---|---|
| MK-2206 and NVP-TAE684 | - | - | 57.9 | 45.4 | - | 56.7 | - | - | 40.4 | - | 86.4 | 71.6 |
| MK-2206 and vismodegib | - | - | 102 | 60.9 | - | 70.2 | - | - | 64.1 | - | 103 | 94.1 |

From a melanoma drug combination screen (doi:10.1371/journal.pone.0140310); values rounded.